Results deposited as PubChem BioAssay AID1159578 (Peter MacCallum Cancer Centre, 2015)
The whole screen tested about 18,000 reagents; shown is a part drawn at random. About 1,030 of them (5.7%) were called active. 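Inactive calls also include pools with fewer than 3300 nuclei, whose migration was not assessed.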 The raw values are shown without normalisation.

- Test: 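siRNA pools altering how lymphatic endothelial cells close a scratch wound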 (primary screen)
- System: human lymphatic endothelial cells
- Reagent: siRNA pool against human genes, 40 nM
- Duration: 48 h after transfection
- Measurement: 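High-content imaging of dye-stained cells in a scratch assay measures filled wound area and nuclei per well; duplicate means given as ratio to mock and robust z-score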
- Reading the numbers: migration robust z-score: higher = faster migration into the scratch; migration relative to mock: higher = more scratch area covered than mock; nuclei per well: higher = more cells in the well
- Active means: 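Pools averaging fewer than 3300 nuclei are never called; remaining pools count as changed when migration robust z lies outside -2 to 2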
- Meaning of the calls: active = migration changed; inactive = no migration change, or too few cells

no.	target	migration robust z-score	migration class with cell-count check	migration relative to mock	nuclei per well, duplicate mean	outcome
1	AZIN1	0.99	migration z between -2 and 2; enough cells	1	7276	inactive
2	DUX1	-0.48	migration z between -2 and 2; enough cells	0.76	6789	inactive
3	ZNF467	-2.36	migration z below -2; enough cells	0.28	5258	active
4	NT5DC3	1.27	migration z between -2 and 2; enough cells	1.21	7474	inactive
5	NUMA1	-2.59	under 3300 nuclei; migration not judged	0.22	2360	inactive
6	C8orf33	0.84	migration z between -2 and 2; enough cells	1.1	5332	inactive
7	PTCHD4	0.28	migration z between -2 and 2; enough cells	0.96	6363	inactive
8	HFE	-2.38	under 3300 nuclei; migration not judged	0.34	2814	inactive
9	CD300LB	2.24	migration z above 2; enough cells	1.47	6006	active
10	PFN4	-0.18	migration z between -2 and 2; enough cells	0.84	5342	inactive
11	GMIP	0.16	migration z between -2 and 2; enough cells	0.84	6262	inactive
12	FERMT3	2.92	migration z above 2; enough cells	1.64	7426	active
13	PDIA2	-0.02	migration z between -2 and 2; enough cells	0.8	6306	inactive
14	CASP9	1.15	migration z between -2 and 2; enough cells	1.02	5287	inactive
15	C3orf36	0.13	migration z between -2 and 2; enough cells	0.92	4827	inactive
16	FKBP3	-0.7	migration z between -2 and 2; enough cells	0.67	5249	inactive
17	IL16	0.9	migration z between -2 and 2; enough cells	1.12	5046	inactive
18	GAS2L1	-0.29	migration z between -2 and 2; enough cells	0.81	6101	inactive
19	SEMA4B	-3.07	under 3300 nuclei; migration not judged	0.09	2596	inactive
20	OR5H1	-0.59	migration z between -2 and 2; enough cells	0.73	5492	inactive
21	GAPDHS	-0.3	migration z between -2 and 2; enough cells	0.81	5852	inactive
22	SLC6A19	0.57	migration z between -2 and 2; enough cells	0.92	5710	inactive
23	FLVCR2	-1.79	migration z between -2 and 2; enough cells	0.43	6132	inactive

As entered above.
For “nuclei per well, duplicate mean”, NUMA1 has 2360
Result of GAS2L1 in “migration robust z-score”: -0.29
Under “nuclei per well, duplicate mean”, FKBP3 has 5249
